Data published in the supplement of paper PMC10849652.
This is one part of the list.

The chains behind the UniProt entries cited, without tags or fusion partners. Where a name states a change or a piece, a line headed by the entry shows the natural chain unless it says otherwise.
UniProt Q7L523, whole entry, looked up: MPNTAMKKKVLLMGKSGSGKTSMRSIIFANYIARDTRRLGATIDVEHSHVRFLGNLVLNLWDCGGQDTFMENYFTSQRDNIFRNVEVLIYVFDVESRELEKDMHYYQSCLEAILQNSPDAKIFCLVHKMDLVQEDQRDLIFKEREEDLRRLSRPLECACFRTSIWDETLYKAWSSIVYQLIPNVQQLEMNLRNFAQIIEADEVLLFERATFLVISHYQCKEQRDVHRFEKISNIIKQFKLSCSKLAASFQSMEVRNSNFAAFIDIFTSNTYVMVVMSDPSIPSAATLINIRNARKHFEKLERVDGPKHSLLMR
UniProt Q9BUL9: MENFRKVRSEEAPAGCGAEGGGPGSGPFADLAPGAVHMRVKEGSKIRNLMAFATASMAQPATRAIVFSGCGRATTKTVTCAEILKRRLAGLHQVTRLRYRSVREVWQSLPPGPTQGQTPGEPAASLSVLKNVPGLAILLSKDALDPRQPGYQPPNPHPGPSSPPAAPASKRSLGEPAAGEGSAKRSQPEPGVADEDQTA
UniProt P04843: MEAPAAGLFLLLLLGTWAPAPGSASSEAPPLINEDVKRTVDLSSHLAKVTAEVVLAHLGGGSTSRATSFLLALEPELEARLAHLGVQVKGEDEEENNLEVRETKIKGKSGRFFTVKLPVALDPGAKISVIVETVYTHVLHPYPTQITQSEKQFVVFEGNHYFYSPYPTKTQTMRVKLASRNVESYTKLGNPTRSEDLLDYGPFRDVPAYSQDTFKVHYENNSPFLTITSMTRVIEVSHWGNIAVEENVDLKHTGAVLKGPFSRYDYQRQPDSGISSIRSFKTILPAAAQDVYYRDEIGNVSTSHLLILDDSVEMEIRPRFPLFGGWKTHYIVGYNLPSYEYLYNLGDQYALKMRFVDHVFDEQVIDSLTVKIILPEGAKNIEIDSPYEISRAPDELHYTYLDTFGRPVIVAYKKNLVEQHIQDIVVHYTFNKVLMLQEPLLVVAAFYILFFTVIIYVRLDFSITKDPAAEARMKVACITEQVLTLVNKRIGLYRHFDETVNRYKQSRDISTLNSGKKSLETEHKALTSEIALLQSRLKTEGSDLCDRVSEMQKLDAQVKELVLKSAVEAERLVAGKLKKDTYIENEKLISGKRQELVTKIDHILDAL
UniProt P10301: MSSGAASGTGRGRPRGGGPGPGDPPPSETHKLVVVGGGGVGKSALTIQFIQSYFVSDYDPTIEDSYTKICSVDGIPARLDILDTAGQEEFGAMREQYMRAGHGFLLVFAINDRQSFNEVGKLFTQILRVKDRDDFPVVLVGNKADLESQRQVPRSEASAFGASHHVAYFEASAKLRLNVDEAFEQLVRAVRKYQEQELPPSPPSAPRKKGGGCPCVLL
UniProt P13489: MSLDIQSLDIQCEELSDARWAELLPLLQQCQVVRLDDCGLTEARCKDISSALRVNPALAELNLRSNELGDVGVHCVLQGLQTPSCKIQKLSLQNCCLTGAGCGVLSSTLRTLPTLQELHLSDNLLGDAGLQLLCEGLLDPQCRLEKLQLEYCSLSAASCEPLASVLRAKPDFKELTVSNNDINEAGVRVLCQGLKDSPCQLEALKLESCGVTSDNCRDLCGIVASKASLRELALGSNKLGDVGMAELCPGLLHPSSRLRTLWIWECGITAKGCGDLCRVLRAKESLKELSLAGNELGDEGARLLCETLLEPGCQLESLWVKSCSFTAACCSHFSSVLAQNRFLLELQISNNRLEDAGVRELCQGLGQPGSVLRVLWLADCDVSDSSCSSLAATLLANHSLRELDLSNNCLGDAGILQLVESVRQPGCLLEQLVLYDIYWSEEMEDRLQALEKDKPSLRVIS
UniProt P78346: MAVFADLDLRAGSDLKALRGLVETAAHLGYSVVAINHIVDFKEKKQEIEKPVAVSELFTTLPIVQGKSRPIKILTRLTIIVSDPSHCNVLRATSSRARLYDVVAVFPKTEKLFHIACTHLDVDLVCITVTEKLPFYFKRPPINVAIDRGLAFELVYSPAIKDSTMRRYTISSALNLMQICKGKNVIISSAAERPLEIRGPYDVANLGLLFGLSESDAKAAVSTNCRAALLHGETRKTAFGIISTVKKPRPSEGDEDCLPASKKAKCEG
UniProt Q96BH1: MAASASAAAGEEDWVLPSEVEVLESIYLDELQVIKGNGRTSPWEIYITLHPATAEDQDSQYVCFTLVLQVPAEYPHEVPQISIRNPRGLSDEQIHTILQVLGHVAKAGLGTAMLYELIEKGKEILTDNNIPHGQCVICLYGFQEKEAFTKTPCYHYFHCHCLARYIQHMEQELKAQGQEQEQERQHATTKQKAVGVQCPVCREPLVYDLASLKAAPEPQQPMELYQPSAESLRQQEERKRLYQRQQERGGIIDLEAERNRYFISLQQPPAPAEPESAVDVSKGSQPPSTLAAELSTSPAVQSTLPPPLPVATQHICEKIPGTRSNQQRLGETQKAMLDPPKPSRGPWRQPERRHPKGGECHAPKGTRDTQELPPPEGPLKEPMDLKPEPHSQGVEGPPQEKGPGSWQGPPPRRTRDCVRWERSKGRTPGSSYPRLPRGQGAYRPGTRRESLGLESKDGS
UniProt Q9HB90, whole entry, looked up: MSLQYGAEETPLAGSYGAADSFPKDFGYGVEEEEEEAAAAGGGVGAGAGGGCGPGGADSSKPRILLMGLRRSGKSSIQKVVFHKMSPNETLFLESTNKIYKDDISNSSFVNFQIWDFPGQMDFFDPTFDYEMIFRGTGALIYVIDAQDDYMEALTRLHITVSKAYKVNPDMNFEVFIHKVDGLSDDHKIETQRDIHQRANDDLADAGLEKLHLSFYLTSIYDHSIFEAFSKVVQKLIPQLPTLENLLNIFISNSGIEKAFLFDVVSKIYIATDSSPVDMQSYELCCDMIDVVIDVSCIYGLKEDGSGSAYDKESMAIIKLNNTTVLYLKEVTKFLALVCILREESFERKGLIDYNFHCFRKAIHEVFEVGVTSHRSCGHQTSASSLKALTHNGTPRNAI
UniProt P05386, whole entry, looked up: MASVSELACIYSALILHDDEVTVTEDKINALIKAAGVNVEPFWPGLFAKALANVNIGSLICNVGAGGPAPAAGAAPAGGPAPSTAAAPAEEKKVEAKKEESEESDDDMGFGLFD
UniProt P62070: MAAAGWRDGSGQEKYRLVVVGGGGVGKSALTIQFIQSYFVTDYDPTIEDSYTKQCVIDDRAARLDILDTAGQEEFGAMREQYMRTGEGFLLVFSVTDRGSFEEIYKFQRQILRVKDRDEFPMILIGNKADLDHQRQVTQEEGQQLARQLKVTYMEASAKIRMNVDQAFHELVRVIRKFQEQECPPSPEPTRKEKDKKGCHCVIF

How the values were obtained:
Experiment in all cases: log2 fold change, soluble protein after heating vs DMSO (PISA); higher = thermal stabilisation; K562 cells, 10 uM, 30 min; active = over 0.2 and 3.5 SD of the protein, either way, in both replicates (recomputed)
[1] = compound: CC1=C(C=C(C=C1)NC(=O)C2=CC(=CC=C2)C(C)(C)C#N)NC3=CC4=C(C=C3)N=CN(C4=O)C
Method in brief: (§1)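 Values are thermal stability changes relative to control samples and are taken from duplicates. They are stated as log2 fold changes. Before quantification by TMTpro 16plex LC-MS/MS with equalised channel sums, K562 cells at 2×10^6 cells/mL were treated with 10 μM compound for 30 min, heated in aliquots for 3 min across 48°C-58°C, pooled, extracted in PBS with 0.5% NP-40 at 4°C, and centrifuged at 21,000xg for 90 min to give the soluble supernatant.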

[2] = compound: CC1=C(C=C(C=C1)NC(=O)C2=CC(=CC=C2)N(C)C)NC(=O)C3=CC=C(C=C3)O
Method in brief: as §1

[3] = compound: CC1=CC=C(C=C1)SC2=C3C=C(SC3=CN=C2)C(=O)N
Method in brief: as §1

[4] = compound: CC1=NC(=CC=C1)C2=C(N=C(N2)C(C)(C)C)C3=CC4=NC=CN=C4C=C3
Method in brief: as §1

Nexturastat A = compound: CCCCN(Cc1ccc(C(=O)NO)cc1)C(=O)Nc1ccccc1 [Nexturastat A]
Method in brief: as §1

vemurafenib = compound: CCCS(=O)(=O)Nc1ccc(F)c(C(=O)c2c[nH]c3ncc(-c4ccc(Cl)cc4)cc23)c1F [vemurafenib]
Method in brief: as §1

[5] = compound: CCCS(=O)(=O)Nc1ccc(F)c(C(=O)c2c[nH]c3ncc(Cl)cc23)c1F
Method in brief: as §1

[6] = compound: CCCc1cc(C)[nH]c(=O)c1CNC(=O)c1cc(-c2ccnc(N3CCN(C)CC3)c2)cc2c1cnn2C(C)C
Method in brief: as §1

givinostat = compound: CCN(CC)Cc1ccc2cc(COC(=O)Nc3ccc(C(=O)NO)cc3)ccc2c1 [givinostat]
Method in brief: as §1

barasertib = compound: CCN(CCCOc1ccc2c(Nc3cc(CC(=O)Nc4cccc(F)c4)[nH]n3)ncnc2c1)CCOP(=O)(O)O [barasertib]
Method in brief: as §1

Measured: log2 fold change

RRAGA (UniProt Q7L523)
inactive: [1] -0.031 | [2] -0.059 | [3] -0.068 | [4] 0.108 | Nexturastat A -0.036 | vemurafenib 0.037 | [5] -0.042 | [6] -0.04 | givinostat -0.366 | barasertib -0.089

RPP25 (UniProt Q9BUL9)
inactive: [1] 0.011 | [2] 0.033 | [3] -0.007 | [4] 0.113 | Nexturastat A 0.098 | vemurafenib -0.083 | [5] -0.036 | [6] -0.083 | givinostat 0.003 | barasertib -0.006

RPN1 (UniProt P04843)
inactive: [1] 0.013 | [2] 0.016 | [3] 0.001 | [4] 0.032 | Nexturastat A -0.042 | vemurafenib -0.014 | [5] 0.019 | [6] -0.01 | givinostat 0.006 | barasertib 0.009

RRAS (UniProt P10301)
inactive: [1] -0.006 | [2] -0.006 | [3] -0.028 | [4] 0.026 | Nexturastat A -0.087 | vemurafenib 0.027 | [5] -0.005 | [6] -0.014 | givinostat 0.026 | barasertib -0.035

Two records drawn at random from the list so far:
RPP25 (UniProt Q9BUL9)
inactive: [1] 0.011 | [2] 0.033 | [3] -0.007 | [4] 0.113 | Nexturastat A 0.098 | vemurafenib -0.083 | [5] -0.036 | [6] -0.083 | givinostat 0.003 | barasertib -0.006

RRAGA (UniProt Q7L523)
inactive: [1] -0.031 | [2] -0.059 | [3] -0.068 | [4] 0.108 | Nexturastat A -0.036 | vemurafenib 0.037 | [5] -0.042 | [6] -0.04 | givinostat -0.366 | barasertib -0.089

The list continues.

RPS12 (UniProt P25398)
inactive: [1] 0.036 | [2] 0.006 | [3] -0.013 | [4] -0.027 | Nexturastat A 0.038 | vemurafenib -0.057 | [5] -0.035 | [6] 0.073 | givinostat -0.035 | barasertib -0.059

RPL3 (UniProt P39023)
inactive: [1] 0.016 | [2] -0.009 | [3] -0.068 | [4] -0.23 | Nexturastat A 0.375 | vemurafenib -0.322 | [5] -0.102 | [6] 0.288 | givinostat 0.154 | barasertib -0.204

RPS27L (UniProt Q71UM5)
inactive: [1] -0.007 | [2] 0.003 | [3] 0.04 | [4] 0.038 | Nexturastat A 0.1 | vemurafenib -0.002 | [5] 0.001 | [6] 0.031 | givinostat 0.034 | barasertib -0.043

RPS3A (UniProt D6R9B6)
inactive: [1] -0.199

RPS18 (UniProt P62269)
inactive: [1] -0.014 | [2] 0 | [3] -0.049 | [4] -0.061 | Nexturastat A 0.148 | vemurafenib -0.125 | [5] -0.04 | [6] -0.01 | givinostat 0.021 | barasertib -0.067

RNH1 (UniProt P13489)
inactive: [1] 0.04 | [2] 0.001 | [3] 0.017 | [4] 0.071 | Nexturastat A -0.065 | vemurafenib -0.011 | [5] 0.039 | [6] -0.03 | givinostat -0.062 | barasertib 0.019

RPP30 isoform 2 (UniProt P78346)
inactive: [1] 0.076 | [2] -0.01 | [3] -0.029 | [4] -0.016 | Nexturastat A 0.068 | vemurafenib -0.108 | [5] -0.006 | [6] 0.066 | givinostat 0.01 | barasertib -0.007

RNF25 (UniProt Q96BH1)
inactive: [1] 0.019 | [2] 0.029 | [3] 0.037 | [4] 0.063 | Nexturastat A -0.04 | vemurafenib 0.03 | [5] 0.053 | [6] -0.018 | givinostat -0.03 | barasertib 0.004

RPS2 (UniProt P15880)
inactive: [1] 0.006 | [2] 0.009 | [3] -0.075 | [4] -0.036 | Nexturastat A 0.192 | vemurafenib -0.116 | [5] -0.099 | [6] 0.084 | givinostat -0.011 | barasertib -0.095

RPL11 (UniProt P62913)
inactive: [1] 0.005 | [2] 0.031 | [3] -0.058 | [4] -0.174 | Nexturastat A 0.354 | vemurafenib -0.251 | [5] -0.106 | [6] 0.267 | givinostat 0.102 | barasertib -0.122

RPS7 (UniProt P62081)
inactive: [1] 0.014 | [2] 0.022 | [3] -0.031 | [4] -0.064 | Nexturastat A 0.208 | vemurafenib -0.061 | [5] -0.022 | [6] 0.212 | givinostat 0 | barasertib -0.09

RPS8 (UniProt P62241)
inactive: [1] -0.011 | [2] -0.024 | [3] -0.094 | [4] -0.045 | Nexturastat A 0.252 | vemurafenib -0.144 | [5] -0.069 | [6] 0.121 | givinostat 0.05 | barasertib -0.12

RPL5 (UniProt P46777)
inactive: [1] 0.006 | [2] 0.01 | [3] -0.046 | [4] -0.136 | Nexturastat A 0.223 | vemurafenib -0.052 | [5] 0 | [6] 0.132 | givinostat 0.003 | barasertib -0.057

RRAGC (UniProt Q9HB90)
inactive: [1] 0.005 | [2] 0.003 | [3] 0.017 | [4] 0.008 | Nexturastat A -0.07 | vemurafenib -0.027 | [5] 0.047 | [6] -0.048 | givinostat 0.052 | barasertib -0.011

RPL27 (UniProt P61353)
inactive: [1] -0.002 | [2] -0.006 | [3] -0.084 | [4] -0.176 | Nexturastat A 0.341 | vemurafenib -0.137 | [5] -0.038 | [6] 0.2 | givinostat 0.1 | barasertib -0.218

RPS19 (UniProt P39019)
inactive: [1] 0.008 | [2] 0.007 | [3] -0.054 | [4] -0.009 | Nexturastat A 0.121 | vemurafenib -0.07 | [5] -0.066 | [6] -0.039 | givinostat 0.013 | barasertib -0.083

RPS4X (UniProt P62701)
inactive: [1] 0.019 | [2] 0 | [3] -0.027 | [4] -0.055 | Nexturastat A 0.214 | vemurafenib -0.106 | [5] -0.08 | [6] 0.213 | givinostat 0.021 | barasertib -0.101

RPLP1 (UniProt P05386)
inactive: [1] -0.109 | [2] 0.041 | [3] -0.167 | [4] -0.279 | Nexturastat A 0.506 | vemurafenib -0.235 | [5] -0.048 | [6] 0.268 | givinostat 0.108 | barasertib -0.12

RPL15 (UniProt P61313)
inactive: [1] -0.049 | [2] 0 | [3] -0.035 | [4] -0.209 | Nexturastat A 0.394 | vemurafenib -0.341 | [5] -0.096 | [6] 0.276 | givinostat 0.136 | barasertib -0.204

RPL10A (UniProt P62906)
inactive: [1] 0.038 | [2] 0 | [3] -0.075 | [4] -0.202 | Nexturastat A 0.399 | vemurafenib -0.262 | [5] -0.091 | [6] 0.292 | givinostat 0.144 | barasertib -0.225

RRAS2 isoform 4 (UniProt P62070)
inactive: [1] -0.016 | [2] -0.02 | [3] -0.009 | [4] -0.021 | Nexturastat A -0.015 | vemurafenib 0.011 | [5] -0.037 | [6] -0.034 | givinostat -0.017 | barasertib -0.049

RPL12 (UniProt P30050)
inactive: [1] -0.094 | [2] 0 | [3] -0.132 | [4] -0.185 | Nexturastat A 0.341 | vemurafenib -0.224 | [5] -0.128 | [6] 0.154 | givinostat 0.038 | barasertib -0.191

RPL19 (UniProt P84098)
inactive: [1] 0.005 | [2] 0.009 | [3] -0.073 | [4] -0.128 | Nexturastat A 0.319 | vemurafenib -0.183 | [5] -0.086 | [6] 0.173 | givinostat 0.027 | barasertib -0.099

RPS16 (UniProt P62249)
inactive: [1] 0.028 | [2] -0.016 | [3] -0.087 | [4] -0.035 | Nexturastat A 0.11 | vemurafenib -0.073 | [5] -0.103 | [6] 0.337 | givinostat -0.046 | barasertib -0.053

RPL32 (UniProt P62910)
inactive: [1] 0.049 | [2] 0 | [3] -0.039 | [4] -0.176 | Nexturastat A 0.349 | vemurafenib -0.223 | [5] -0.063 | [6] 0.202 | givinostat 0.004 | barasertib -0.183

RPL34 (UniProt P49207)
inactive: [1] 0.013 | [2] -0.004 | [3] -0.119 | [4] -0.219 | Nexturastat A 0.331 | vemurafenib -0.239 | [5] -0.123 | [6] 0.212 | givinostat 0.117 | barasertib -0.236
